This is one part of the list.
Tests used:
Assay in all cases: log2 fold change, soluble protein after heating vs DMSO (PISA); higher = thermal stabilisation; K562 lysate, 10 uM; active = over 0.2 and 3.5 SD of the protein, either way, in both replicates (recomputed)
lapatinib = compound: CS(=O)(=O)CCNCc1ccc(-c2ccc3ncnc(Nc4ccc(OCc5cccc(F)c5)c(Cl)c4)c3c2)o1 [lapatinib]
Method in brief: (§1)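 Following dounce homogenisation of K562 pellets in PBS pH 7.4 with 1 mM MgCl2, crude extract at 1 mg/mL protein was incubated for 30 min with 10 μM compound. Aliquots were then heated for 3 min over 48°C-58°C and pooled, NP-40 was added to 0.5% at 4°C, and soluble protein was recovered as the supernatant at 21,000xg for 90 min. Channel-sum-equalised TMTpro 16plex LC-MS/MS quantified this protein. Each value, from duplicates, is a log-two fold change in thermal stability relative to solvent controls.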

The chains behind the UniProt entries cited, without tags or fusion partners. Where a name states a change or a piece, a line headed by the entry shows the natural chain unless it says otherwise.
UniProt Q05084: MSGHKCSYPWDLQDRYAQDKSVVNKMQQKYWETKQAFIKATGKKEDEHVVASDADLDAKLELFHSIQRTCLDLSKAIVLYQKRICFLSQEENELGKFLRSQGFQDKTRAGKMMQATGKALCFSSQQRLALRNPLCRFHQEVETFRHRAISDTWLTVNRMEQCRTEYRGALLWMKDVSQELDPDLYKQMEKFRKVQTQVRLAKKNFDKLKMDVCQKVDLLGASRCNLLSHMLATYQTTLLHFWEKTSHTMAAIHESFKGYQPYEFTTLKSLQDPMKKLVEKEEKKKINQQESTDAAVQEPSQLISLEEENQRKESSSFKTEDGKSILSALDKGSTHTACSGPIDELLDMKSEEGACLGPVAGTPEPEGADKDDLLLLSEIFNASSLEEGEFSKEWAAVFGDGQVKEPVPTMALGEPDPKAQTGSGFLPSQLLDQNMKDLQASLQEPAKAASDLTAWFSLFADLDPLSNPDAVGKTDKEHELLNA
UniProt Q9NVM9, whole entry, looked up: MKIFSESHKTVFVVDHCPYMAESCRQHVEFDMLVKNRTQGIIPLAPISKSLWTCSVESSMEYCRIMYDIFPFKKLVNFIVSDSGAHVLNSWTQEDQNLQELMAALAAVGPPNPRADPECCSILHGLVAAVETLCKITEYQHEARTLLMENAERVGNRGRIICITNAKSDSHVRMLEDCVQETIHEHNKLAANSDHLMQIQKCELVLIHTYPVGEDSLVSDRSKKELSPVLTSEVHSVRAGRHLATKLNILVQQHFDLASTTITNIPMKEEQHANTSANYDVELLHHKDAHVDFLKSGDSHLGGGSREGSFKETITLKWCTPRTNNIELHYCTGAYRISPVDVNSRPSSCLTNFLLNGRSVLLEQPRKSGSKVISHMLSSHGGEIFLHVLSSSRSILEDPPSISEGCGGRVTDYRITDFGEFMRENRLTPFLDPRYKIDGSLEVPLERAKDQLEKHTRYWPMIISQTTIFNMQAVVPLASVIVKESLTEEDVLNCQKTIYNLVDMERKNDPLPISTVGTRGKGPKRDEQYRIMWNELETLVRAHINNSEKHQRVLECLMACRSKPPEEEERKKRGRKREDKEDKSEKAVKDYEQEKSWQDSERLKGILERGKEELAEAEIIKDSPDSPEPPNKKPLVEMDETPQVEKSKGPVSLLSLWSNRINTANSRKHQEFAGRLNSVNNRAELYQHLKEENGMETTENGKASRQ
UniProt O43837: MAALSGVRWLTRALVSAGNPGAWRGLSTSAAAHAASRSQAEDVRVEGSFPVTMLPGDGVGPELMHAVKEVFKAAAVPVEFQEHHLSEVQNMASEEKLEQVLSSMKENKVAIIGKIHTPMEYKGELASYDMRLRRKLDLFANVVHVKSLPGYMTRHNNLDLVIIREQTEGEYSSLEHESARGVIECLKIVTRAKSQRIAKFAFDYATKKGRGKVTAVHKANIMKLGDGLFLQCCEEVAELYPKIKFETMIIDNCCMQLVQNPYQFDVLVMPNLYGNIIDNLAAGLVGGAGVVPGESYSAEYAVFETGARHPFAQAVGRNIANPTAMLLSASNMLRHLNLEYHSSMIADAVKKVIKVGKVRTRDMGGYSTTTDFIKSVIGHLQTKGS
UniProt Q12906, whole entry, looked up: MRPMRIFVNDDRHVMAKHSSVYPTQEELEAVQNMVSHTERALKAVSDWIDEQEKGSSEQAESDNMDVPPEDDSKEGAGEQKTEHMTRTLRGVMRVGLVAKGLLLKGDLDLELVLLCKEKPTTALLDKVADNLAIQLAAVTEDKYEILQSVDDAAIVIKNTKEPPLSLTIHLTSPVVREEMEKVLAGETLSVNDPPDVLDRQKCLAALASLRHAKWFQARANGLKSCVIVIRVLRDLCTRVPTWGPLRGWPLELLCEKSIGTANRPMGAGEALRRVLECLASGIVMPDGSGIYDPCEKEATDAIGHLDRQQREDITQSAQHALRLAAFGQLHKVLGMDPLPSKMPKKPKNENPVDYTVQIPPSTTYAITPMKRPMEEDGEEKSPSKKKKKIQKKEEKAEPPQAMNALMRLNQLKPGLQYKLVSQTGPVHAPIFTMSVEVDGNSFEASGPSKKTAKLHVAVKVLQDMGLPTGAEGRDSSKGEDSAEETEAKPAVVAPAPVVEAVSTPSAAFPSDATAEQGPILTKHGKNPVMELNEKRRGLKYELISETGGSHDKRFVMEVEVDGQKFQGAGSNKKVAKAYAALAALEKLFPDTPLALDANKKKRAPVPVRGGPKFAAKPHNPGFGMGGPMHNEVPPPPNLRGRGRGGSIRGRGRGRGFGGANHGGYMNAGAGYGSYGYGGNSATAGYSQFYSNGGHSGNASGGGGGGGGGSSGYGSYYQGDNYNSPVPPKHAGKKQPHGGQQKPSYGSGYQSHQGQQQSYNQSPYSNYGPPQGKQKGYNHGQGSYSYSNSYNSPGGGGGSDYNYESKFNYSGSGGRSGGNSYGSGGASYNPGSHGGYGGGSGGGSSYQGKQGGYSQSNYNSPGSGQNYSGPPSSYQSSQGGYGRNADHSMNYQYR
UniProt C9J406: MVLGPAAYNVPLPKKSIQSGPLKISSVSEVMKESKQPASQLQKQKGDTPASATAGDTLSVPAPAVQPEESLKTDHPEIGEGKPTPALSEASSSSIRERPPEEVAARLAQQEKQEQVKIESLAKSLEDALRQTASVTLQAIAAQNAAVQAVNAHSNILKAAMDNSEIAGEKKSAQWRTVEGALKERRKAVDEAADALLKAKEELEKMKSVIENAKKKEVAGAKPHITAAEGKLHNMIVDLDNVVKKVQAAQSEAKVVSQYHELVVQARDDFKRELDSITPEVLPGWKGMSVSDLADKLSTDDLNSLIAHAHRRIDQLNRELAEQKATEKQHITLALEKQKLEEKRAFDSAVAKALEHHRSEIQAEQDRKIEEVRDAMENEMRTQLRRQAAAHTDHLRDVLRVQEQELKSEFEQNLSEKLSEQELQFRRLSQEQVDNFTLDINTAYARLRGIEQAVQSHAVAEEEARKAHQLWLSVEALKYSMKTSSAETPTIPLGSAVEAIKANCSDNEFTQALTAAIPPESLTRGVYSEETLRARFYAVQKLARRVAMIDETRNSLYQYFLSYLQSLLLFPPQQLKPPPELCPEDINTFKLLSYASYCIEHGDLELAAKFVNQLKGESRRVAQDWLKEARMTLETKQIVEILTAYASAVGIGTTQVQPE
UniProt Q8NBZ0, whole entry, looked up: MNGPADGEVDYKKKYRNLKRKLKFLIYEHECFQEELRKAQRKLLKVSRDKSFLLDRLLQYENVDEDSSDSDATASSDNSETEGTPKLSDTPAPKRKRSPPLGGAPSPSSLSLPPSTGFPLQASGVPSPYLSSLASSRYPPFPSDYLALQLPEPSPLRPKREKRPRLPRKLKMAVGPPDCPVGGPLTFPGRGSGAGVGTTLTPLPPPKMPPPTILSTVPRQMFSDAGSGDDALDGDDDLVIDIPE
UniProt Q9NX55: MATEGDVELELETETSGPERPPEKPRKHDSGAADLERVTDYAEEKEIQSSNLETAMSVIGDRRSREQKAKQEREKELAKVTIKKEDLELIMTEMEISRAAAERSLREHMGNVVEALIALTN
UniProt Q96EW2: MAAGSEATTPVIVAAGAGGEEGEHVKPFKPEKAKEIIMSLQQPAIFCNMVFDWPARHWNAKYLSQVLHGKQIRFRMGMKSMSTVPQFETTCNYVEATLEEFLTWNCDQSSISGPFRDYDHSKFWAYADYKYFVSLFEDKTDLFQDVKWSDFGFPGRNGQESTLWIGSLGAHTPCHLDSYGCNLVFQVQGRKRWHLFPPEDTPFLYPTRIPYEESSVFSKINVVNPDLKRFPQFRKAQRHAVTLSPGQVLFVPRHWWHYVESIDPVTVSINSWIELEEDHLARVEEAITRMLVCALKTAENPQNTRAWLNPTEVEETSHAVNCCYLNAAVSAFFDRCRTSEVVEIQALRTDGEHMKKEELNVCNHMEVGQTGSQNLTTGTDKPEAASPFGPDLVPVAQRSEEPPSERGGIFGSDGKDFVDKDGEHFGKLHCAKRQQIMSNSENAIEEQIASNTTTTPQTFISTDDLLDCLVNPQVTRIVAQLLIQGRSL
UniProt Q9NV31: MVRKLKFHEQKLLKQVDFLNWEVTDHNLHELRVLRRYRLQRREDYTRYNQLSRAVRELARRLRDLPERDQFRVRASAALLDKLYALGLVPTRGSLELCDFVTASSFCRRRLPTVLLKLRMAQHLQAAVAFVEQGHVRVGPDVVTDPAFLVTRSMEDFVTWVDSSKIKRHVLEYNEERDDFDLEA
UniProt Q9P2X3: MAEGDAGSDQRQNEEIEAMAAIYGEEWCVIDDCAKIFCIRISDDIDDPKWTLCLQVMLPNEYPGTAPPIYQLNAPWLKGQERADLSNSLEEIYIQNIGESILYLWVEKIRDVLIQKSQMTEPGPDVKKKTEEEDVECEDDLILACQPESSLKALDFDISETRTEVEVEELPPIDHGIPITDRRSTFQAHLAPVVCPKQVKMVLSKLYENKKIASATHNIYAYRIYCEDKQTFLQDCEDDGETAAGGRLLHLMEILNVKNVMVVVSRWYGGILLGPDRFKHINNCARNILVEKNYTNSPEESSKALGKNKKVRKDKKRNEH
UniProt Q16891: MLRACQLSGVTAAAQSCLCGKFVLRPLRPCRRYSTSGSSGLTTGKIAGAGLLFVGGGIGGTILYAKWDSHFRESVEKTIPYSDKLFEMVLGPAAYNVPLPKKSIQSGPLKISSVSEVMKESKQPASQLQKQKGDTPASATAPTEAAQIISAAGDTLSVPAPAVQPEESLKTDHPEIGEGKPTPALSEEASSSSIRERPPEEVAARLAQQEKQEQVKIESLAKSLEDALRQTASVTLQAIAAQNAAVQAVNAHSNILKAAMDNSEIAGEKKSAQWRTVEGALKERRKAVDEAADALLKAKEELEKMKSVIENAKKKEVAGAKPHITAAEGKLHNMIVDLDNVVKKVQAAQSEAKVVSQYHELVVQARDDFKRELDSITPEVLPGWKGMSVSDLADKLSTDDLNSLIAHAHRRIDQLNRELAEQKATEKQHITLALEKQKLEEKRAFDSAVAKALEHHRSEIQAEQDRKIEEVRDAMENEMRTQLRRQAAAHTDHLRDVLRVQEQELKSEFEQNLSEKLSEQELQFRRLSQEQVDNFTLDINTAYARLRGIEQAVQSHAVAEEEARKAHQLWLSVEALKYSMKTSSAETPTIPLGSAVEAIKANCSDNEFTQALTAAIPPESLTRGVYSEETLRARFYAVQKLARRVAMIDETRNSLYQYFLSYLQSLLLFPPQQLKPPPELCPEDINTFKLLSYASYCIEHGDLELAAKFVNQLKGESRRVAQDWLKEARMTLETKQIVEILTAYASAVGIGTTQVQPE
UniProt Q70UQ0: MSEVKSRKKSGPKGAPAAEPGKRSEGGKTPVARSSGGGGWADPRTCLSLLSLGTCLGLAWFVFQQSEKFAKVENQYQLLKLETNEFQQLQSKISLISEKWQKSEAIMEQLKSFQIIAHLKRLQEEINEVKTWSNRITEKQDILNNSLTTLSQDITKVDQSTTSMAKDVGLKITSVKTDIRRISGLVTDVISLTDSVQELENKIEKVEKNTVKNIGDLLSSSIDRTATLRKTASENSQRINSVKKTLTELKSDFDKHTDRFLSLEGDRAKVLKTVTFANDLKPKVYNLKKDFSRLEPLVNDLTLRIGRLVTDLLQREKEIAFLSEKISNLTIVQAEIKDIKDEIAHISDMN
UniProt P20839, whole entry, looked up: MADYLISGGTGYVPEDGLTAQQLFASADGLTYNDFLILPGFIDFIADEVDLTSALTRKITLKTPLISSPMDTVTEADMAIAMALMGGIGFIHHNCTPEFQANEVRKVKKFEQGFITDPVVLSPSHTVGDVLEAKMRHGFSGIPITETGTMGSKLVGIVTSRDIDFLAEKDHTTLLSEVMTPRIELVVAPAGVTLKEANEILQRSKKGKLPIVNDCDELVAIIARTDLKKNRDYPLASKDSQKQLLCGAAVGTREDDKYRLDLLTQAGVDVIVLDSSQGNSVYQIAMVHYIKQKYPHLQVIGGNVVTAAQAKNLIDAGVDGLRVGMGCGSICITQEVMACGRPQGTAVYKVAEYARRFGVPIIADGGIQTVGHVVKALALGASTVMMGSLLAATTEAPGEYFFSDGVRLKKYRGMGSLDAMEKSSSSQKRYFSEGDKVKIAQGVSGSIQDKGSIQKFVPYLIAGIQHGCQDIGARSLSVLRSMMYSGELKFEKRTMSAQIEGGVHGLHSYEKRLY
UniProt Q9Y6K9, whole entry, looked up: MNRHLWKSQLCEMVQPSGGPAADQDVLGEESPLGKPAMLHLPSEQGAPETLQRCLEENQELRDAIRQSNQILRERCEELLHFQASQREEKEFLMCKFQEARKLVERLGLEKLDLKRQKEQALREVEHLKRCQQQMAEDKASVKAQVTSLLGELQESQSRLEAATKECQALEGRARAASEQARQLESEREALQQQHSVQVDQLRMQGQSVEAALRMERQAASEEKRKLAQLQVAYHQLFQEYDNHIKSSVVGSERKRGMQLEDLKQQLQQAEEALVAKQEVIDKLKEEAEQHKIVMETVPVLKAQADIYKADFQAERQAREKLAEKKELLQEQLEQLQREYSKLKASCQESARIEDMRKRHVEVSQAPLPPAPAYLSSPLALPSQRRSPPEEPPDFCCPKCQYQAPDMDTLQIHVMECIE

pictilisib = compound: CS(=O)(=O)N1CCN(Cc2cc3nc(-c4cccc5[nH]ncc45)nc(N4CCOCC4)c3s2)CC1 [pictilisib]
Method in brief: as §1

crizotinib = compound: C[C@@H](Oc1cc(-c2cnn(C3CCNCC3)c2)cnc1N)c1c(Cl)ccc(F)c1Cl [crizotinib]
Method in brief: as §1

[1] = compound: C[C@H](C1=CC=C(C=C1)C(=O)NC2=C3C=CNC3=NC=C2)N
Method in brief: as §1

duvelisib = compound: C[C@H](Nc1ncnc2nc[nH]c12)c1cc2cccc(Cl)c2c(=O)n1-c1ccccc1 [duvelisib]
Method in brief: as §1

gandotinib = compound: Cc1cc(Nc2cc(CN3CCOCC3)c3nc(C)c(Cc4ccc(Cl)cc4F)n3n2)n[nH]1 [gandotinib]
Method in brief: as §1

tozasertib = compound: Cc1cc(Nc2cc(N3CCN(C)CC3)nc(Sc3ccc(NC(=O)C4CC4)cc3)n2)n[nH]1 [tozasertib]
Method in brief: as §1

doramapimod = compound: Cc1ccc(-n2nc(C(C)(C)C)cc2NC(=O)Nc2ccc(OCCN3CCOCC3)c3ccccc23)cc1 [doramapimod]
Method in brief: as §1

bafetinib = compound: Cc1ccc(NC(=O)c2ccc(CN3CC[C@H](N(C)C)C3)c(C(F)(F)F)c2)cc1Nc1nccc(-c2cncnc2)n1 [bafetinib]
Method in brief: as §1

[2] = compound: Cc1cccc(CC(=O)N2CCc3c2ccc(-c2cn(C)c4ncnc(N)c24)c3F)n1
Method in brief: as §1

Measured: log2 fold change

ICA1 (UniProt Q05084)
inactive: lapatinib -0.044 | pictilisib 0.006 | crizotinib -0.068 | [1] 0 | duvelisib 0.011 | gandotinib 0.016 | tozasertib 0.006 | doramapimod 0.015 | bafetinib 0 | [2] -0.007

INTS13 (UniProt Q9NVM9)
inactive: lapatinib 0.004 | pictilisib -0.008 | crizotinib 0.004 | [1] 0.021 | duvelisib -0.006 | gandotinib -0.019 | tozasertib -0.005 | doramapimod -0.02 | bafetinib 0.003 | [2] 0.02

IDH3B (UniProt O43837)
inactive: lapatinib 0.005 | pictilisib -0.041 | crizotinib 0.008 | [1] -0.081 | duvelisib -0.004 | gandotinib 0.002 | tozasertib 0.002 | doramapimod -0.016 | bafetinib -0.019 | [2] -0.004

IGF2BP1 (UniProt Q9NZI8)
inactive: lapatinib -0.013 | pictilisib -0.015 | crizotinib -0.031 | [1] -0.074 | duvelisib -0.004 | gandotinib -0.071 | tozasertib 0.009 | doramapimod -0.014 | bafetinib -0.03 | [2] 0.067

IBA57 (UniProt Q5T440)
inactive: lapatinib -0.03 | pictilisib -0.074 | crizotinib 0.072 | [1] -0.027 | duvelisib 0.027 | gandotinib -0.009 | tozasertib 0.016 | doramapimod -0.014 | bafetinib -0.016 | [2] 0.003

ILF3 isoform 7 (UniProt Q12906)
inactive: lapatinib 0.002 | pictilisib 0.002 | crizotinib 0.019 | [1] -0.03 | duvelisib 0.028 | gandotinib 0.02 | tozasertib 0.007 | doramapimod -0.011 | bafetinib 0.003 | [2] 0.019

IMMT (UniProt C9J406)
inactive: lapatinib 0.017 | pictilisib 0.082 | crizotinib -0.116 | duvelisib 0.003 | gandotinib 0.048 | tozasertib 0.015 | doramapimod -0.034 | bafetinib 0.03 | [2] 0.168
active: [1] -0.461

INO80E (UniProt Q8NBZ0)
inactive: lapatinib 0.316 | pictilisib 0.077 | crizotinib -0.12 | [1] 0.021 | duvelisib 0.177 | gandotinib 0.136 | tozasertib -0.039 | doramapimod 0.037 | bafetinib 0.03 | [2] 0.271

IGF2R (UniProt P11717)
inactive: lapatinib 0.007 | pictilisib -0.014 | crizotinib 0.042 | [1] -0.043 | duvelisib 0.003 | gandotinib 0.045 | tozasertib 0.008 | doramapimod -0.008 | bafetinib 0.065 | [2] 0.029

HYPK (UniProt Q9NX55)
inactive: lapatinib -0.024 | pictilisib -0.081 | crizotinib 0.065 | [1] -0.006 | duvelisib 0.03 | gandotinib 0.001 | tozasertib 0.003 | doramapimod -0.059 | bafetinib 0.02 | [2] -0.016

ICAM2 (UniProt P13598)
active: [1] 0.293
inactive: lapatinib -0.008 | pictilisib -0.08 | crizotinib -0.002 | duvelisib -0.035 | gandotinib -0.04 | tozasertib -0.01 | doramapimod -0.014 | bafetinib 0.013 | [2] -0.075

ICAM1 (UniProt P05362)
inactive: lapatinib -0.02 | pictilisib -0.003 | crizotinib 0.044 | [1] -0.075 | duvelisib 0.015 | gandotinib 0.045 | tozasertib -0.019 | doramapimod -0.075 | bafetinib -0.049 | [2] 0.016

INPP5B (UniProt P32019)
inactive: lapatinib 0.017 | pictilisib -0.011 | crizotinib -0.007 | [1] -0.118 | duvelisib 0.041 | gandotinib 0.042 | tozasertib -0.028 | doramapimod 0.019 | bafetinib -0.083 | [2] 0.137

IFT80 isoform 3 (UniProt Q9P2H3)
inactive: lapatinib -0.075 | pictilisib -0.083 | crizotinib -0.078 | [1] -0.044 | duvelisib 0.077 | gandotinib -0.034 | tozasertib 0.005 | doramapimod 0.107 | bafetinib 0.025 | [2] 0.088

HSPBAP1 (UniProt Q96EW2)
inactive: lapatinib -0.074 | pictilisib -0.014 | crizotinib -0.111 | [1] -0.076 | duvelisib 0.022 | gandotinib 0.15 | tozasertib -0.025 | doramapimod 0.125 | bafetinib 0.052 | [2] -0.141

IMP3 (UniProt Q9NV31)
inactive: lapatinib 0.425 | pictilisib -0.014 | crizotinib -0.176 | [1] -0.134 | duvelisib -0.304 | gandotinib 0.038 | tozasertib -0.077 | doramapimod 0.071 | bafetinib -0.181 | [2] 0.306

HSPA9 (UniProt P38646)
inactive: lapatinib 0.006 | pictilisib 0.014 | crizotinib 0.05 | [1] 0.026 | duvelisib 0 | gandotinib -0.035 | tozasertib 0.024 | doramapimod -0.013 | bafetinib 0.012 | [2] -0.038

IGF2BP2 isoform 6 (UniProt Q9Y6M1)
inactive: lapatinib 0.084

IGFN1 isoform 5 (UniProt Q86VF2)
inactive: lapatinib -0.331

IFRD1 (UniProt O00458)
inactive: lapatinib 0.026 | pictilisib 0.076 | crizotinib 0.016 | [1] 0.152 | duvelisib 0.018 | gandotinib -0.044 | tozasertib 0.078 | doramapimod -0.02 | bafetinib 0.054 | [2] -0.104

IMPACT (UniProt Q9P2X3)
inactive: lapatinib 0.012 | pictilisib 0.044 | crizotinib 0.083 | [1] 0.077 | duvelisib -0.015 | gandotinib 0.065 | tozasertib 0.026 | doramapimod -0.044 | bafetinib -0.098 | [2] -0.096

ICE2 (UniProt Q659A1)
inactive: lapatinib -0.1 | pictilisib -0.025 | crizotinib -0.029 | [1] -0.03 | duvelisib 0.007 | gandotinib -0.018 | tozasertib 0.012 | doramapimod 0.016 | bafetinib -0.051 | [2] 0.02

Reprinted at random: two entries already listed
IGF2BP2 isoform 6 (UniProt Q9Y6M1)
inactive: lapatinib 0.084

IFRD1 (UniProt O00458)
inactive: lapatinib 0.026 | pictilisib 0.076 | crizotinib 0.016 | [1] 0.152 | duvelisib 0.018 | gandotinib -0.044 | tozasertib 0.078 | doramapimod -0.02 | bafetinib 0.054 | [2] -0.104

The list goes on:

IMPA2 (UniProt O14732)
inactive: lapatinib 0.042 | pictilisib 0.059 | crizotinib 0.048 | [1] -0.11 | duvelisib -0.03 | gandotinib 0.11 | tozasertib 0.044 | doramapimod 0.038 | bafetinib -0.019 | [2] 0.046

IMMT (UniProt Q16891)
inactive: lapatinib -0.058 | pictilisib 0.001 | crizotinib -0.049 | [1] -0.006 | duvelisib -0.039 | gandotinib -0.134 | tozasertib 0.02 | doramapimod 0.011 | bafetinib -0.053 | [2] 0.023

IMPDH2 (UniProt P12268)
inactive: lapatinib 0.027 | pictilisib 0.043 | crizotinib -0.007 | [1] -0.011 | duvelisib -0.012 | gandotinib -0.04 | tozasertib -0.017 | doramapimod 0.029 | bafetinib 0.041 | [2] 0.012

ILVBL (UniProt A1L0T0)
inactive: lapatinib 0.021 | pictilisib -0.036 | crizotinib -0.024 | [1] -0.07 | duvelisib 0.035 | gandotinib 0.041 | tozasertib 0.005 | doramapimod 0.012 | bafetinib 0.02 | [2] 0.032

HSPE1 (UniProt P61604)
inactive: lapatinib 0.036 | pictilisib 0.034 | crizotinib 0.026 | [1] 0.038 | duvelisib 0.036 | gandotinib 0.003 | tozasertib 0.063 | doramapimod 0.003 | bafetinib 0.015 | [2] 0.004

IKBIP (UniProt Q70UQ0)
inactive: lapatinib -0.023 | pictilisib -0.018 | crizotinib 0.007 | [1] -0.061 | duvelisib 0.002 | gandotinib 0.016 | tozasertib 0.057 | doramapimod -0.052 | bafetinib -0.044 | [2] 0.03

IDE, A0A3B3ISG5
inactive: lapatinib -0.009 | pictilisib -0.018 | crizotinib 0.009 | [1] 0.02 | duvelisib 0.02 | gandotinib -0.024 | tozasertib 0 | doramapimod -0.016 | bafetinib -0.017 | [2] -0.016

IMPDH1 isoform 6 (UniProt P20839)
inactive: lapatinib -0.001 | pictilisib 0.01 | crizotinib -0.021 | [1] -0.061 | duvelisib -0.013 | gandotinib 0.046 | tozasertib 0.014 | doramapimod 0.033 | bafetinib -0.037 | [2] 0.064

IKBKG isoform 2 (UniProt Q9Y6K9)
inactive: lapatinib -0.026 | pictilisib 0.01 | crizotinib -0.005 | [1] -0.054 | duvelisib 0.025 | gandotinib 0.048 | tozasertib -0.016 | doramapimod 0 | bafetinib 0 | [2] 0.01

Reference: the supplement of paper PMC10849652
